PubChem BioAssay AID504774 – Drosophila RNAi Screening Center | 2011
The deposit covers about 23,000 reagents; shown is a random part of those with a known target gene and a result. 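Values are quantile-normalised luminescence on an arbitrary scale; higher means more cells surviving MMS.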 Names joined by + are all predicted targets of the reagent. Not all columns of the deposit are shown.

- Purpose: 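Knock-downs that shift viability of MMS-exposed cells relative to untreated ones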 (primary screen)
- System: Drosophila Kc167 cells
- Knock-down reagent: long dsRNA against Drosophila genes, about 0.25 µg dsRNA per well
- Timing: about 6 days: 3 days knock-down, then 3 days with or without MMS
- Treatment: methyl methanesulphonate 0.004% (w/v) for 3 days after knock-down
- Detection: 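Viability in wells given MMS, read as ATP luminescence, normalised by quantiles plate by plate and averaged across replicates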
- Reading the numbers: mean viability with MMS and viability with MMS: higher = more surviving cells after MMS

Depletion of CG4270 [DRSC00648] came out at: mean viability with MMS 3.45e6; viability with MMS, replicate 1 = 3.93e6. After knock-down of Gyc89Da (Guanylyl cyclase at 89Da) [DRSC15008], the screen gave mean viability with MMS 3.27e6; viability with MMS, replicate 1 = 3.76e6. Gale (UDP-galactose 4'-epimerase) [DRSC08234] gave mean viability with MMS 3.36e6; viability with MMS, replicate 1 = 3.83e6. After knock-down of eco (Establishment of cohesion) [DRSC11006], the screen gave mean viability with MMS 3.38e6; viability with MMS, replicate 1 = 3.93e6. With knock-down of Erk7 (Extracellularly regulated kinase 7) [DRSC18127], the record shows mean viability with MMS 3.64e6; viability with MMS, replicate 1 = 4.10e6. Silencing of Erk7 (Extracellularly regulated kinase 7) [DRSC18227] gave: mean viability with MMS 3.67e6; viability with MMS, replicate 1 = 4.19e6.

Knock-down of Erk7 (Extracellularly regulated kinase 7) [DRSC21895] gave: mean viability with MMS 3.50e6; viability with MMS, replicate 1 = 4.03e6. Cpr65Ax2 + Cpr65Ax1 [DRSC10341] gave mean viability with MMS 3.67e6; viability with MMS, replicate 1 = 4.13e6. Against Cpr65Ax2 + Cpr65Ax1 [DRSC10344] the deposit lists mean viability with MMS 3.64e6; viability with MMS, replicate 1 = 4.07e6. Against sw (short wing) [DRSC20388], the values are mean viability with MMS 3.43e6; viability with MMS, replicate 1 = 3.88e6. For CG15403 [DRSC00417] the deposit lists mean viability with MMS 3.68e6; viability with MMS, replicate 1 = 4.11e6. Against CG13197 [DRSC06322], the entry reads mean viability with MMS 3.69e6; viability with MMS, replicate 1 = 4.07e6.

With knock-down of Mtpbeta (Mitochondrial trifunctional protein beta subunit) [DRSC04663], the screen gave mean viability with MMS 3.54e6; viability with MMS, replicate 1 = 4.08e6. CG13063 [DRSC09946] scored mean viability with MMS 3.54e6; viability with MMS, replicate 1 = 3.92e6.

Targets above whose target name begins with E or e (4):
eco (Establishment of cohesion) [DRSC11006]: mean viability with MMS = 3.38e6; viability with MMS, replicate 1 = 3.93e6
Erk7 (Extracellularly regulated kinase 7) [DRSC18127]: mean viability with MMS = 3.64e6; viability with MMS, replicate 1 = 4.10e6
Erk7 (Extracellularly regulated kinase 7) [DRSC18227]: mean viability with MMS = 3.67e6; viability with MMS, replicate 1 = 4.19e6
Erk7 (Extracellularly regulated kinase 7) [DRSC21895]: mean viability with MMS = 3.50e6; viability with MMS, replicate 1 = 4.03e6
